Experimental data taken from PubChem BioAssay AID651582 (Sanford-Burnham Center for Chemical Genomics, 2012).
This is one part of the list.

experiment: inhibitors of triacylglycerol accumulation, primary screen, cell-based, uHTS, fluorescence, H9c2 (AID 651582); conditions: H9c2 cells, Nile Red lipid (TAG) fluorescence; DAPI nuclei count viability; at 12.5 µM; cells loaded with 200 µM oleic acid

| Compound | DAPI activity (viability loss) [%] |
| --- | --- |
| Cc1ccc(C(=O)NCC2(N(C)C)CCCCC2)o1 | 0.455 |
| O=C(NCC1(N2CCCCC2)CCCCC1)c1cncc(Br)c1 | -1.54 |
| O=C(NCC1(N2CCOCC2)CCCCC1)c1cc(F)c(F)cc1Cl | 0.813 |
| CN(C)c1cccc(C(=O)NCC2(N3CCCCC3)CCCCC2)c1 | 16.4 |
| COc1ccc(CN(CCCl)CCCl)cc1Cl | 15.3 |
| CC(C)c1ccc(NC2CCN(C(=O)OC(C)(C)C)CC2)cc1 | 4.87 |
| CC(C)c1ccc(C(=O)NCC2(N3CCOCC3)CCCCC2)cc1 | 8.38 |
| COc1ccc(NC2CCN(C(=O)OC(C)(C)C)CC2)cc1 | -0.395 |
| O=C(NCC1(N2CCOCC2)CCCCC1)c1cc(=O)[nH]c2ccccc12 | 1.91 |
| O=C(NCC1(N2CCCCC2)CCCCC1)c1cccc([N+](=O)[O-])c1 | -4.57 |
| CSc1ccc(C(=O)NCC2(N3CCOCC3)CCCCC2)cc1 | 0.263 |
| N#CC1(Nc2ccccc2)CCN(CCc2ccccc2)CC1 | -0.749 |
| CCOC(=O)N1CCC(Nc2ccc(F)cc2)CC1 | 1.44 |
| O=P1(N(CCCl)CCCl)SCCCS1 | 3.79 |
| CCCCOc1ccc(C(=O)NCC2(N3CCOCC3)CCCCC2)cc1 | 5.62 |
| CCOc1ccc(C)cc1CN(CCCl)CCCl | -2.25 |
| COc1ccc(Cl)cc1C(=O)NCC1(N2CCOCC2)CCCCC1 | -4.93 |
| O=C(NCC1(N2CCCCC2)CCCCC1)c1ccc(Cl)s1 | -16.2 |
| N#CC1(Nc2ccccc2)CCN(Cc2ccccc2)CC1 | -11.5 |
| O=C(NCC1(N2CCOCC2)CCCCC1)c1cc2ccccc2o1 | -1.46 |
| O=C(NCC1(N2CCCCC2)CCCCC1)c1ccc(Cl)nc1 | -2.19 |
| Cc1cccc(NC2(C#N)CCN(Cc3ccccc3)CC2)c1 | -5 |
| O=C(NCC1(N2CCCCC2)CCCCC1)c1cccs1 | 0.73 |

| Compound | DAPI activity (viability loss) [%] |
| --- | --- |
| O=C(NCC1(N2CCCCC2)CCCCC1)c1ccc(=O)[nH]c1 | 3.34 |
| COc1ccc(C(=O)NCC2(N3CCCCC3)CCCCC2)c(OC)c1OC | -2.91 |
| CN1CCC(Nc2ccc(Cl)cc2)CC1 | -5.04 |
| CCC(CO)(C(=O)OC1CN2CCC1CC2)c1ccccc1 (stereo not given) | -0.373 |
| COc1cc(OC)cc(C(=O)NCC2(N3CCOCC3)CCCCC2)c1 | -6.71 |
| CC(C)(C)OC(=O)N1CCC(Nc2ccccc2)CC1 | 6.69 |
| CN1CCC(Nc2ccc(F)c(Cl)c2)CC1 | -1.81 |
| CN(C)c1ccc(C(=O)NCC2(N3CCCCC3)CCCCC2)cc1 | 14.9 |
| Cn1c(=O)[nH]cc(N(CCCl)CCCl)c1=O | -0.189 |
| O=C(NCC1(N2CCCCC2)CCCCC1)c1ccco1 | 5.81 |
| Cc1ccccc1NC1(C#N)CCN(Cc2ccccc2)CC1 | 5.99 |
| Cc1ccc(NC2(C#N)CCN(Cc3ccccc3)CC2)cc1 | 5.89 |
| Cc1ccc(C(=O)NCC2(N3CCCCC3)CCCCC2)o1 | 6.79 |
| CC(=O)N(c1ccccc1)C1CCNCC1 | 8.03 |
| Cc1cc(N(CCCl)CCCl)ccc1C=O | 0.849 |
| CCCN1CCC(Nc2cc(OC)cc(OC)c2)CC1 | 1.85 |
| c1ccc(CN2CCC(Nc3ccccc3)CC2)cc1 | 16.8 |
| N#Cc1ccc(C(=O)NCC2(N3CCCCC3)CCCCC2)cc1 | -0.722 |
| N/C(=N\O)c1c(N)no[n+]1[O-] | 1.83 |
| COc1ccc(C(=O)NCC2(N3CCOCC3)CCCCC2)cc1OC | 4.05 |
| O=C(NCC1(N2CCOCC2)CCCCC1)c1cc(Br)ccc1Cl | 3.56 |
| COc1cc(C(=O)NCC2(N3CCOCC3)CCCCC2)cc(OC)c1C | 5.34 |
